The target in test [1] is T1, GST-tagged LASP1 (LIM and SH3 protein 1) (UniProt Q14847).
T1 sequence: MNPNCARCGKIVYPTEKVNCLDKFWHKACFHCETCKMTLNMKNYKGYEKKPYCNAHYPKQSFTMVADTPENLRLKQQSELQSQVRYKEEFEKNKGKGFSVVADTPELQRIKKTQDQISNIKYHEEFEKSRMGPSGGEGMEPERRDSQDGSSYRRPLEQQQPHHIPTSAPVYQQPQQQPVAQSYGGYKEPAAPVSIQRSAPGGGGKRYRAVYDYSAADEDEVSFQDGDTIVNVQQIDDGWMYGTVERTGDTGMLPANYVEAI
In words: condition: 2 μg GST-tagged LASP1 in 500 μl cell lysate; pull-down; 500 ul MDA-MB-231-shLASP1 cell lysate (RIPA+ buffer) incubated with 2 ug GST-tagged LASP1 for 1 h at 4°C, then 50 ul GST-sepharose beads 60 min; washed with ice-cold PBS; Western blot; also tried with purified nucleus preparation; only the target purified. For orientation: In western blotting, separated proteins are transferred to a membrane and probed.

Amino acid sequences for entries named in this document (tags omitted).
UniProt P05412: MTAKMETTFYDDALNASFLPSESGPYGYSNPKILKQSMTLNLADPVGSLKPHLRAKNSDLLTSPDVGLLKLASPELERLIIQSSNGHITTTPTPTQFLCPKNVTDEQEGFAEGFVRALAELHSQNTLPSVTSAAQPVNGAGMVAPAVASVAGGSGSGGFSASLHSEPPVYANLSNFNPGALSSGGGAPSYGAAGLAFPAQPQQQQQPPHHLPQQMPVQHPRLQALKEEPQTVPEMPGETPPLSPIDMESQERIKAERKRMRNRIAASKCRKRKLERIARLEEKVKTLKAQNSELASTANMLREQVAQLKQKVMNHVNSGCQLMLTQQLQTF

Test [2] addresses T2, His-tagged LASP1 (LIM and SH3 protein 1) (UniProt Q14847).
T2 sequence: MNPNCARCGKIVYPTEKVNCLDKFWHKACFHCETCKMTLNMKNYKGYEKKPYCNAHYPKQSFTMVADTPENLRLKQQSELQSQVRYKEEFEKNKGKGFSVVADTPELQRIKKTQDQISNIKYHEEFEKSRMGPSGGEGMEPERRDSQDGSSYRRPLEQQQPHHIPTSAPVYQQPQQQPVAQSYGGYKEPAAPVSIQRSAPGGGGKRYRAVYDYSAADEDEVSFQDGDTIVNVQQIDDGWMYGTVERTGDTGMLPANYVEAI
Put plainly: pull-down; 500 ul MDA-MB-231-shLASP1 cell lysate (RIPA+ buffer) rotated with 2 ug His6-LASP1 for 2 h at 4°C, then magnetic His-beads 15 min at 4°C; washed with ice-cold PBS; Western blot; also tried with purified nucleus preparation; only the target purified.

No constants are given. Whether binding was seen depends on the method and setting. In cells and extracts the contact can be indirect. Some results given as binding are weak or reduced against the parent protein; the word gives no strength. Where a sequence is shown, tags or fusion partners need not be part of it.

For “c-Jun, endogenous (from UniProt P05412 1-331)”, the binding result in test [1] was “no binding”; in test [2] it was “no binding (tested: 2 μg His6-LASP1 in 500 μl cell lysate)”.

B1: zyxin, endogenous (protein, UniProt Q15942 1-572)
chain: MAAPRPSPAISVSVSAPAFYAPQKKFGPVVAPKPKVNPFRPGDSEPPPAPGAQRAQMGRVGEIPPPPPEDFPLPPPPLAGDGDDAEGALGGAFPPPPPPIEESFPPAPLEEEIFPSPPPPPEEEGGPEAPIPPPPQPREKVSSIDLEIDSLSSLLDDMTKNDPFKARVSSGYVPPPVATPFSSKSSTKPAAGGTAPLPPWKSPSSSQPLPQVPAPAQSQTQFHVQPQPQPKPQVQLHVQSQTQPVSLANTQPRGPPASSPAPAPKFSPVTPKFTPVASKFSPGAPGGSGSQPNQKLGHPEALSAGTGSPQPPSFTYAQQREKPRVQEKQHPVPPPAQNQNQVRSPGAPGPLTLKEVEELEQLTQQLMQDMEHPQRQNVAVNELCGRCHQPLARAQPAVRALGQLFHIACFTCHQCAQQLQGQQFYSLEGAPYCEGCYTDTLEKCNTCGEPITDRMLRATGKAYHPHCFTCVVCARPLEGTSFIVDQANRPHCVPDYHKQYAPRCSVCSEPIMPEPGRDETVRVVALDKNFHMKCYKCEDCGKPLSIEADDNGCFPLDGHVLCRKCHTARAQT
B1: in test [2], the binding result is recorded as “binds”.
